{"source": "patent US12053465B2", "about": "“KCC2 expression enhancing compounds and uses thereof” (Whitehead Institute for Biomedical Research, priority 2017, dated 2024)", "test_system": "KCC2 expression (KCC2-2A-luciferase reporter)", "test": "KCC2-2A-luciferase reporter compound screening with wild type KCC2 reporter neurons", "assay_type": "cell-based", "details": "WT human KCC2 reporter neurons; LINCS 0.5 μM, IRSF/SMART and ICCB 10 μM, one week; Luc/CTG normalized to in-plate DMSO; hit = B score >3", "description": "In addition, CRISPR/Cas9 genome editing technology was utilized to insert a 2A-luciferase reporter gene directly before the stop codon of the endogenous KCC2 locus in human ES cells, thus creating wild type (WT) cells isogenic to the MECP2-null RTT human KCC2 reporter neurons. KCC2 expression reporter human neurons were differentiated from the gene-targeted ES cells and utilized as the substrate for unbiased compound screening (FIG. 6A; see also FIG. 1A).\nGene-targeted KCC2 reporter cells were used in a HTS pipeline to screen for small molecule compounds that enhance KCC2 gene expression (FIG. 1B; note that reporter neurons were adapted to 384 well format for some screens, and the same workflow was used both for WT KCC2 reporter neurons and RTT KCC2 reporter neurons). Six replicate screens were performed in WT KCC2 reporter neurons using the LINCS and SMART libraries as well as the ICCB known bioactive library (FIG. 6B).\nThe cells were dissociated with Accutase, resuspended in 10 ml neuronal differentiation medium to count cells. the final cell seeding density was 20 k-40 k cells per well for 96-well plates, and ˜10 k cells per well for 384-well plates. […]\nFor some screens, on the day of the luciferase assay, the cells were washed with PBS three times using a BioTek EL406 plate washer. […] Assay readouts were performed on a Tecan M1000 Infinite plate reader. […]", "note": "“And” between values parts separate entries of the source, which are not always exact repeats. Identical values can stand only once. Some results were stated once for a whole list of compounds, not compound by compound. At least one read-out could not be matched to a standard name with certainty.", "data": [{"smiles": "O=C(c1ccc(/C=C/c2n[nH]c3ccccc23)cc1)N1CCNCC1", "note": "[KW-2449, (E)-(4-(2-(1H-indazol-3-yl)vinyl)phenyl)(piperazin-1-yl)methanone]", "values": [{"measurement": "B Score", "result": "> 3 and 5.45"}]}]}
